# The list shows a part of the results. Repeats in this data set agree poorly, so a single value says little.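 Flies heterozygous for the ATM8 allele over a balancer chromosome carrying normal ATM were mated with each other on treated food. Parents laid eggs for 5–6 days and the young then developed for about 12 days, so both parents and larvae ate the compound. The read-out is the share of all emerged adults that carry two ATM8 copies, compared with 2% DMSO control vials. The paper called compounds neutral at 10–20% such offspring, harmful below 10%, and helpful above 20%.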
# System: Drosophila melanogaster ATM8 (temperature-sensitive ATM allele)
# Experiment: fraction of eclosed F1 progeny that are homozygous ATM8 (rescue of developmental lethality); higher = more rescue of ATM8 developmental lethality; extreme values may be limits of the assay
# Details: compound concentration applied to food 0.2 mM; 21 °C
row,Compound,fraction of eclosed F1 progeny that are homozygous ATM8
1,COc1c(O)cc2oc3cc(O)c(CC=C(C)C)c(O)c3c(=O)c2c1CC=C(C)C [alpha-MANGOSTIN],0.474
2,CC1(C)C[C@@H]2C(=O)CC[C@H]3O[C@]3(C)CC[C@H]21,0.167
3,O=C1CCC(N2C(=O)c3ccccc3C2=O)C(=O)N1 (stereo not drawn),0.159
4,CC(C)CCCC(C)C1CCC2C3CCC4CC(O)CCC4(C)C3CCC12C (stereo not drawn) [5alpha-CHOLESTANOL],0.231
5,O=c1c(O)c(-c2ccc(O)c(O)c2)oc2c(O)c(O)cc(O)c12,0.069
6,COc1ccccc1N1CCN(CCCNc2cc(=O)n(C)c(=O)n2C)CC1,0.255
7,CC(C)[C@H](N)C(=O)O,0.0952
8,COc1ccc(-c2cc(=O)c3c(O)cc(OC)cc3o2)cc1,0.186
9,O=C(/C=C/C=C/c1ccc2c(c1)OCO2)N1CCCCC1,0.133
10,CCC(=O)OCC(=O)[C@@]1(OC(=O)CC)[C@@H](C)C[C@H]2[C@@H]3CCC4=CC(=O)C=C[C@]4(C)[C@@]3(Cl)[C@@H](O)C[C@@]21C,0.0976
11,CCN(CC)Cc1cc(Nc2ccnc3cc(Cl)ccc23)ccc1O,0.0741
12,CCN(CC)S(=O)(=O)c1ccc(C(=O)O)cc1,0.0566
13,CN1CCc2cc3c(cc2C1O)OCO3 (stereo not drawn),0.218
14,CC(C)NCC(O)c1cc(O)cc(O)c1 (stereo not drawn),0.176
15,O=C(O)CN(CCN(CC(=O)O)CC(=O)O)CCN(CC(=O)O)CC(=O)O,0.185
16,C#CCN(C)CCCOc1ccc(Cl)cc1Cl,0.19
17,COc1ccc(-c2cc(=O)c3c(OC)c(OC)c(OC)cc3o2)cc1OC,0.0833
18,COc1ccc2c(c1)O[C@H]1c3ccc(OC)cc3OC[C@@H]21,0.333
19,c1ccc(CN(CC2=NCCN2)c2ccccc2)cc1,0
20,NC(=O)NS(=O)(=O)c1ccc(N)cc1,0.0488
21,CC(=O)N(CC(O)CN(C(C)=O)c1c(I)c(C(=O)NCC(O)CO)c(I)c(C(=O)NCC(O)CO)c1I)c1c(I)c(C(=O)NCC(O)CO)c(I)c(C(=O)NCC(O)CO)c1I (stereo not drawn),0.0833
22,Cc1cc(O)c2c(O)c3c(O)cccc3cc2c1,0.13
23,C=CCSCC1Nc2cc(Cl)c(S(N)(=O)=O)cc2S(=O)(=O)N1 (stereo not drawn),0.0169

# Two neighbouring records out of the list so far, quoted:
row,Compound,fraction of eclosed F1 progeny that are homozygous ATM8
9,O=C(/C=C/C=C/c1ccc2c(c1)OCO2)N1CCCCC1,0.133
10,CCC(=O)OCC(=O)[C@@]1(OC(=O)CC)[C@@H](C)C[C@H]2[C@@H]3CCC4=CC(=O)C=C[C@]4(C)[C@@]3(Cl)[C@@H](O)C[C@@]21C,0.0976

# (more compounds)

row,Compound,fraction of eclosed F1 progeny that are homozygous ATM8
1,NC(=O)c1cccc(N)c1,0.152
2,Cc1cc(-c2ccc(/N=N/c3ccc4c(S(=O)(=O)O)cc(S(=O)(=O)O)c(N)c4c3O)c(C)c2)ccc1/N=N/c1ccc2c(S(=O)(=O)O)cc(S(=O)(=O)O)c(N)c2c1O,0.185
3,COc1ccc(/C=C/c2cc(O)cc(O)c2)cc1,0.111
4,CC(=O)OCC(=O)[C@@]1(OC(C)=O)[C@@H](C)C[C@H]2[C@@H]3C[C@H](F)C4=CC(=O)C=C[C@]4(C)[C@@]3(F)[C@@H](O)C[C@@]21C,0.114
5,C[C@]1(Cn2ccnn2)[C@H](C(=O)O)N2C(=O)C[C@H]2S1(=O)=O,0.0345
6,CC[C@@H](CO)NCCN[C@@H](CC)CO,0
7,CCN(CC)CCOCCOC(=O)C(CC)(CC)c1ccccc1,0.154
8,CCCCC/C=C\C/C=C\C/C=C\C/C=C\CCCC(=O)O,0.0833
9,Nc1ccccc1C(=O)CC(N)C(=O)O (stereo not drawn),0.029
10,CC[C@H]1CN2CC[C@H]1C[C@H]2[C@H](O)c1ccnc2ccc(OC)cc12,0.195
11,CCCOc1ccc(C(=O)OCCN(CC)CC)cc1N,0.255
12,CC(=O)OCC(=O)[C@H]1CC[C@H]2[C@@H]3CCC4=CC(=O)CC[C@]4(C)[C@H]3CC[C@]12C,0.0606
13,COc1cc(O)ccc1C(C)=O,0.3
14,O=c1[nH]c2ccccc2n1C1CCN(CCCC(c2ccc(F)cc2)c2ccc(F)cc2)CC1,0.0606
15,CC(CN(C)C)CN1c2ccccc2Sc2ccccc21 (stereo not drawn),0.226
16,CC1(C)[C@@H](OC(=O)CCC(=O)O)CC[C@]2(C)[C@H]3C(=O)C=C4[C@@H]5C[C@@](C)(C(=O)O)CC[C@]5(C)CC[C@@]4(C)[C@]3(C)CC[C@@H]12,0.167
17,CC(=O)[O][Hg][c]1ccccc1,0.154
18,N=C(N)NCCN1CCCCCCC1,0.0667
19,CC(C)CCCC(C)NC(C)C (stereo not drawn),0.149
20,Cc1cc2c(C(C)C)c(O)c(O)c(C=O)c2c(O)c1-c1c(C)cc2c(C(C)C)c(O)c(O)c(C=O)c2c1O,0.25
21,C=CCOC(Cn1ccnc1)c1ccc(Cl)cc1Cl (stereo not drawn),0.127
22,CC(=O)Nc1cc([As](=O)(O)O)ccc1O,0.109
23,CO/N=C(\C(=O)N[C@@H]1C(=O)N2C(C(=O)OC(C)OC(C)=O)=C(COC(N)=O)CS[C@H]12)c1ccco1 (stereo partly drawn),0.204

row,Compound,fraction of eclosed F1 progeny that are homozygous ATM8
1,COc1cc2c(cc1OC)[C@@H]1C(=O)c3ccc(OC)c(CC=C(C)C)c3O[C@@H]1CO2,0.0769
2,C=CCCCCCCCCC(=O)[O-].C=CCCCCCCCCC(=O)[O-].[Zn+2],0.0125
3,CCNC(=O)/C=C/c1cccc(Br)c1,0
4,O=c1cc(-c2ccccc2)oc2cccc(O)c12,0.0526
5,NCCc1ccccc1,0.16
6,COC(=O)Nc1nc2cc([S+]([O-])c3ccccc3)ccc2[nH]1 (stereo not drawn),0.192
7,COc1ccc2c(=O)c(CC(=O)O)coc2c1,0.0317
8,C[C@@H]1O[C@@H](O[C@@H]2C=C3CC[C@@H]4[C@H](CC[C@]5(C)[C@@H](c6ccc(=O)oc6)CC[C@]45O)[C@@]3(C)CC2)[C@H](O)[C@H](O)[C@H]1O,0.164
9,CNc1ccccc1C(=O)N1CCc2c([nH]c3ccccc23)C1=O,0.0238
10,Cc1cnc[nH]1,0.263
11,Cc1cc(N)c2ccccc2[n+]1CCCCCCCCCC[n+]1c(C)cc(N)c2ccccc21,0.0682
12,Nc1ccn([C@@H]2CS[C@H](CO)O2)c(=O)n1,0.037
13,Nc1c2c(nc3ccccc13)CCCC2O (stereo not drawn),0
14,CN(C)C(=O)Oc1ccc[n+](C)c1,0.0374
15,COc1ccccc1OCC(O)COC(N)=O (stereo not drawn),0.132
16,FC(F)(F)COCC(F)(F)F,0.0698
17,CN1Cc2c(N)cccc2C(c2ccccc2)C1 (stereo not drawn),0.08
18,CCN[C@@H]1C[C@H](N)[C@@H](O[C@H]2OC(CN)=CC[C@H]2N)[C@H](O)[C@H]1O[C@H]1OC[C@](C)(O)[C@H](NC)[C@H]1O,0
19,C=C(C)[C@@H]1CC=C(CO)CC1,0.0698
20,CC(=O)Oc1cccc(C)c1 [meta-CRESYL ACETATE],0.17
21,CC1(C)CC2C1CCC1(C)OC2(C)CCC1O (stereo not drawn),0.104
22,NC(=O)[C@@H]1CCCN1C(=O)[C@H](Cc1c[nH]cn1)NC(=O)[C@@H]1CCC(=O)N1,0.125

# 3 compounds already listed, arranged by length of the SMILES, largest number first.
row,Compound,fraction of eclosed F1 progeny that are homozygous ATM8
19,c1ccc(CN(CC2=NCCN2)c2ccccc2)cc1,0
11,CCCOc1ccc(C(=O)OCCN(CC)CC)cc1N,0.255
20,NC(=O)NS(=O)(=O)c1ccc(N)cc1,0.0488

# — the supplement of paper PMC5770031
